Consider one substance from publication PMC4007472.

The target of this assay is T1, Intact FnBPA (with FnBRs 1–11), expressed on S. aureus (S. aureus) (UniProt P14738).
T1 sequence: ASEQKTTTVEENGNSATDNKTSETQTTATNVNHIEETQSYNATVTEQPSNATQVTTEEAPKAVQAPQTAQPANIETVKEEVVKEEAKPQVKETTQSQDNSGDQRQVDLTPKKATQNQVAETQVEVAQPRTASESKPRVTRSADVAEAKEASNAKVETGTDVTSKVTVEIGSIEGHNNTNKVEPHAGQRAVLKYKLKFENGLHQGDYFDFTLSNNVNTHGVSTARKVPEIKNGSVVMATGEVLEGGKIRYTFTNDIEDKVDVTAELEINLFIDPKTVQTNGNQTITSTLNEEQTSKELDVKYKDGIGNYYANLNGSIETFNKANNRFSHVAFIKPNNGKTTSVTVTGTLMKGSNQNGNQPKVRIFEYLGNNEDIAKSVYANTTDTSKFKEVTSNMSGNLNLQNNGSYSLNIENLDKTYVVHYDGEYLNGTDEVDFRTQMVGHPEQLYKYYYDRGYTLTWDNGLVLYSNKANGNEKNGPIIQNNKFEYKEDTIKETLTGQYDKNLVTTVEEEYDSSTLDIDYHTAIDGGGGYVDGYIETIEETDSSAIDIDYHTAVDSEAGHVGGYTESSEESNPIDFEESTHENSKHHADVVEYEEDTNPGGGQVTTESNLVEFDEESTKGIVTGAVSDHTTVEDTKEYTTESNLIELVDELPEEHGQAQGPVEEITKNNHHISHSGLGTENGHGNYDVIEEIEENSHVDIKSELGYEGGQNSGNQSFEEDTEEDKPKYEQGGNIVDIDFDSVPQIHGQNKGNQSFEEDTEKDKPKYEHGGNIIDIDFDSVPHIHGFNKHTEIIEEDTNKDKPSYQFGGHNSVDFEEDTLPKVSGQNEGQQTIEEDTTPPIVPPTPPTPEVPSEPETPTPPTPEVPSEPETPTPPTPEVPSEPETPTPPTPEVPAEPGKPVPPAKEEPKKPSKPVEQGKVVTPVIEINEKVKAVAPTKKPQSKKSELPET
The assay can be described thus: adherence of bacteria to coated wells (crystal violet); soluble human Fg added at a range of concentrations to S. aureus cells expressing FnBPA constructs on Fn-coated wells; inhibition of adherence; only the binder purified.

No constants are given. Whether binding was seen depends on the method and setting. Binding calls can cover weak binding; strength is not graded here.

As to “Intact human plasma fibrinogen (Fg) (complex)”, the binding result is “binds”.
